Measured values reported in US20130023532A1, “INDAZOLYL-PYRIMIDINES AS KINASE INHIBITORS” (priority 2010, published 2013).
Structures can show the parent of a compound that is named as a salt. Some of these results come from one statement about several compounds together.

Chains of the proteins cited; added tags and fusions are not shown.
UniProt O43353, whole entry: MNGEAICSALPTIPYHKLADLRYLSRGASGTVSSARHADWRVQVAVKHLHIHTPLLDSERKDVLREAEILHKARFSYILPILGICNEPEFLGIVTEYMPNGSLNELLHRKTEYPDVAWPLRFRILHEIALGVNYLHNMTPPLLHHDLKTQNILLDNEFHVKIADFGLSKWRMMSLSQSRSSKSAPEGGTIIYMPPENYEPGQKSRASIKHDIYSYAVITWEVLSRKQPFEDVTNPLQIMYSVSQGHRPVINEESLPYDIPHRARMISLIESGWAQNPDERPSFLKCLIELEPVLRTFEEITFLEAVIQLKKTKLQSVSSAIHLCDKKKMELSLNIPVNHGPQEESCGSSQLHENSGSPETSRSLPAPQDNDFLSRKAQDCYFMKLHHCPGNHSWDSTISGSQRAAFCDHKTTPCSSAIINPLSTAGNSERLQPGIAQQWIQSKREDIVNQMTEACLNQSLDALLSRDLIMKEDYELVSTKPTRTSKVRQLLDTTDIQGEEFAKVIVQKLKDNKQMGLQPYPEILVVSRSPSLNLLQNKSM

target: T1, RIPK2 (Homo sapiens, UniProt O43353); test: Fluorescent polarization based binding assay at the ATP binding pocket of RIPK2; conditions: FP competition with fluorescently labeled ATP competitive ligand (5 nM); full length FLAG His tagged RIPK2; mean of a minimum of 2 experiments
T1 construct: Full length FLAG His tagged RIPK2 was purified from a Baculovirus expression system; FLAG (N); 6His (N); made in house; host or cells: Spodoptera frugiperda (Sf9) insect cells, baculovirus

Row | SMILES | mean pIC50
1 | CS(=O)(=O)c1cc(Nc2nccc(Nc3n[nH]c4ccc(F)cc34)n2)cc(N2CCCC2)c1 [Example 81, N4-(5-fluoro-1H-indazol-3-yl)-N2-[3-(methylsulfonyl)-5-(1-pyrrolidinyl)phenyl]-2,4-pyrimidinediamine] | greater than or equal to 6.0
2 | CCOc1cc(Nc2nccc(Nc3n[nH]c4ccc(F)cc34)n2)cc(S(=O)(=O)CC)c1 [Example 82, N2-[3- (ETHYLOXY)-5- (ETHYL SULFONYL) PHENYL]-N4-(5- FLUORO-1H- INDAZOL-3-YL)- 2,4-PYRIMIDINE- DIAMINE] | greater than or equal to 6.0
3 | CS(=O)(=O)c1cc(Nc2nccc(Nc3n[nH]c4ccc(F)cc34)n2)cc2c1CCO2 [Example 83, N4-(5-fluoro-1H-indazol-3-yl)-N2-[4-(methylsulfonyl)-2,3-dihydro-1-benzofuran-6-yl]-2,4-pyrimidinediamine] | greater than or equal to 6.0
4 | CN(c1ccnc(Nc2ccc(F)c(S(C)(=O)=O)c2)n1)c1n[nH]c2ccc(F)cc12 [Example 84, N4-(5-FLUORO- 1H-INDAZOL-3- YL)-N2-[4- FLUORO-3- (METHYL- SULFONYL) PHENYL]-N4- METHYL-2,4- PYRIMIDINE- DIAMINE] | greater than or equal to 6.0
5 | Cc1c(Nc2nccc(N(C)c3n[nH]c4ccc(F)cc34)n2)cccc1S(C)(=O)=O [Example 85, N4-(5-fluoro-1H-indazol-3-yl)-N4-methyl-N2-[2-methyl-3-(methylsulfonyl)phenyl]-2,4-pyrimidinediamine] | greater than or equal to 6.0
6 | Cc1cc(Nc2nccc(N(C)c3n[nH]c4ccc(F)cc34)n2)cc(S(C)(=O)=O)c1C [Example 86, N2-[3,4- DIMETHYL-5- (METHYL- SULFONYL) PHENYL]-N4-(5- FLUORO-1H- INDAZOL-3-YL)- N4-METHYL-2,4- PYRIMIDINE- DIAMINE] | greater than or equal to 6.0
7 | COc1ccc(S(C)(=O)=O)cc1Nc1nccc(Nc2n[nH]c3ccc(F)cc23)n1 [Example 87, N4-(5-FLUORO- 1H-INDAZOL-3- YL)-N2-[2- (METHYLOXY)-5- (METHYL- SULFONYL) PHENYL]-2,4- PYRIMIDINE- DIAMINE] | greater than or equal to 6.0
8 | COc1ccc(S(N)(=O)=O)cc1Nc1nccc(Nc2n[nH]c3ccc(F)cc23)n1 [Example 88, 3-({4-[(5- FLUORO-1H- INDAZOL-3- YL)AMINO]-2- PYRIMIDINYL} AMINO)-4- (METHYLOXY) BENZENE SULFONAMIDE] | greater than or equal to 6.0
9 | O=S(=O)(c1cccc(Nc2nccc(Nc3n[nH]c4ccc(F)cc34)n2)c1)C(F)(F)F [Example 89, N4-(5-fluoro-1H-indazolL-3-yl)-N2-{3-[(trifluoromethyl)sulfonyl]phenyl}-2,4-pyrimidineamine] | greater than or equal to 6.0
10 | Fc1ccc2[nH]nc(Nc3ccnc(Nc4cccc5sccc45)n3)c2c1.O=C(O)C(F)(F)F [Example 90, N2-1-benzothien-4-yl-N4-(5-fluoro-1H-indazol-3-yl)-2,4-pyrimidinediamine trifluoroacetate] | greater than or equal to 6.0
11 | Cc1cc(C)c(S(C)(=O)=O)cc1Nc1nccc(Nc2n[nH]c3ccc(F)cc23)n1.O=C(O)C(F)(F)F [Example 91, N2-[2,4-dimethyl-5-(methylsulfonyl)phenyl]-N4-(5-fluoro-1H-indazol-3-yl)-2,4-pyrimidinediamine trifluoroacetate] | greater than or equal to 6.0
12 | NS(=O)(=O)c1cc2c(c(Nc3nccc(Nc4n[nH]c5ccc(F)cc45)n3)c1)OCC2 [Example 92, 7-({4-[(5- FLUORO-1H- INDAZOL-3- YL)AMINO]-2- PYRIMIDINYL} AMINO)-2,3- DIHYDRO-1- BENZOFURAN-5- SULFONAMIDE] | greater than or equal to 6.0
13 | CS(=O)(=O)c1cccc(Nc2nccc(Nc3n[nH]c4ccc(F)cc34)n2)c1F.O=C(O)C(F)(F)F [Example 93, N4-(5-fluoro-1H-indazol-3-yl)-N2-[2-fluoro-3-(methylsulfonyl)phenyl]-2,4-pyrimidinediamine trifluoroacetate] | greater than or equal to 6.0
14 | Cc1ccc(Nc2nccc(Nc3n[nH]c4cc(C(F)(F)F)ccc34)n2)cc1S(C)(=O)=O [Example 94, N2-[4-methyl-3-(methylsulfonyl)phenyl]-N4-[6-(trifluoromethyl)-1H-indazol-3-yl]-2,4-pyrimidinediamine] | greater than or equal to 6.0
15 | Cc1ccc(Nc2nccc(Nc3n[nH]c4c(F)c(F)ccc34)n2)cc1S(C)(=O)=O [Example 95, N4-(6,7- DIFLUORO-1H- INDAZOL-3-YL)- N2-[4-METHYL-3- (METHYL- SULFONYL) PHENYL]-2,4- PYRIMIDINE- DIAMINE] | greater than or equal to 6.0
16 | Cc1ccc2c(Nc3ccnc(Nc4ccc(C)c(S(C)(=O)=O)c4)n3)n[nH]c2c1 [Example 96, N4-(6-METHYL- 1H-INDAZOL-3- YL)-N2-[4- METHYL-3- (METHYL- SULFONYL) PHENYL]-2,4- PYRIMIDINE- DIAMINE] | greater than or equal to 6.0

Row | SMILES | mean pIC50
17 | Cc1ccc(Nc2nccc(Nc3n[nH]c4ccc(Cl)cc34)n2)cc1S(C)(=O)=O [Example 97, N4-(5-CHLORO-? 1H-INDAZOL-3- YL)-N2-[4- METHYL-3- (METHYL- SULFONYL) PHENYL]-2,4- PYRIMIDINE- DIAMINE] | greater than or equal to 6.0
18 | Cc1ccc(Nc2nccc(Nc3n[nH]c4cccc(Cl)c34)n2)cc1S(C)(=O)=O [Example 98, N4-(4-CHLORO- 1H-INDAZOL-3- YL)-N2-[4- METHYL-3- (METHYL- SULFONYL) PHENYL]-2,4- PYRIMIDINE- DIAMINE] | greater than or equal to 6.0
19 | Cc1ccc(Nc2nccc(Nc3n[nH]c4c(F)cccc34)n2)cc1S(C)(=O)=O [Example 99, N4-(7-FLUORO- 1H-INDAZOL-3- YL)-N2-[4- METHYL-3- (METHYL- SULFONYL) PHENYL]-2,4- PYRIMIDINE- DIAMINE] | greater than or equal to 6.0
20 | Cc1ccc(Nc2nccc(Nc3n[nH]c4c(F)cc(F)cc34)n2)cc1S(C)(=O)=O [Example 100, N4-(5,7- DIFLUORO-1H- INDAZOL-3-YL)- N2-[4-METHYL-3- (METHYL- SULFONYL) PHENYL]-2,4- PYRIMIDINE- DIAMINE] | greater than or equal to 6.0
21 | Cc1ccc(Nc2nccc(Nc3n[nH]c4cc(F)c(F)cc34)n2)cc1S(C)(=O)=O [Example 101, N4-(5,6-difluoro-1H-indazol-3-yl)-N2-[4-methyl-3-(methylsulfonyl)phenyl]-2,4-pyrimidinediamine] | greater than or equal to 6.0
22 | Cc1ccc(S(C)(=O)=O)cc1Nc1nccc(Nc2n[nH]c3ccc(F)cc23)n1 [Example 102, N4-(5-fluoro-1H-indazol-3-yl)-N2-[2-methyl-5-(methylsulfonyl)phenyl]-2,4-pyrimidinediamine] | greater than or equal to 6.0
23 | COc1cc(Nc2nccc(Nc3n[nH]c4ccc(F)cc34)n2)cc(OC)c1OC [Example 103, N4-(5-FLUORO- 1H-INDAZOL-3- YL)-N2-[3,4,5- TRIS(METHYL- OXY)PHENYL]- 2,4-PYRIMIDINE- DIAMINE] | greater than or equal to 6.0
24 | COc1ccc2[nH]nc(Nc3ccnc(Nc4ccc(C)c(S(C)(=O)=O)c4)n3)c2c1 [Example 104, N2-[4-METHYL-3- (METHYL- SULFONYL) PHENYL]-N4-[5- (METHYLOXY)- 1H-INDAZOL-3- YLJ-2,4- PYRIMIDINE- DIAMINE] | greater than or equal to 6.0
25 | CN(C)S(=O)(=O)Nc1cccc(Nc2nccc(Nc3n[nH]c4ccc(F)cc34)n2)c1 [Example 105, N′-[3-({4-[(5-fluoro-1H-indazol-3-yl)amino]-2-pyrimidinyl}amino)phenyl]-N,N-dimethylsulfamide] | greater than or equal to 6.0
26 | NS(=O)(=O)c1cccc(Nc2nccc(Nc3n[nH]c4ccc(F)cc34)n2)c1 [Example 106, 3-({4-[(5-fluoro-1H-indazol-3-yl)amino]-2-pyrimidinyl}amino) benzene sulfonamide hydrochloride] | greater than or equal to 6.0
27 | Cc1ccc(Nc2nccc(Nc3n[nH]c4ccc(F)cc34)n2)cc1S(N)(=O)=O [Example 107, 5-({4-[(5-fluoro-1H-indazol-3-yl)amino]-2-pyrimidinyl}amino)-2-methylbenzene sulfonamide] | greater than or equal to 6.0
28 | Cc1ccc(Nc2nccc(N(C)c3n[nH]c4c(F)c(F)ccc34)n2)cc1S(C)(=O)=O [Example 108, N4-(6,7-difluoro-1H-indazol-3-yl)-N4-methyl-N2-[4-methyl-3-(methylsulfonyl)phenyl]-2,4-pyrimidinediamine] | greater than or equal to 6.0
29 | Cc1cc(Nc2nccc(N(C)c3n[nH]c4c(F)c(F)ccc34)n2)cc(S(C)(=O)=O)c1 [Example 109, N4-(6,7-difluoro-1H-indazol-3-yl)-N4-methyl-N2-[3-methyl-5-(methylsulfonyl)phenyl]-2,4-pyrimidinediamine] | greater than or equal to 6.0
30 | COc1cc(Nc2nccc(N(C)c3n[nH]c4c(F)c(F)ccc34)n2)cc(OC)c1OC [Example 110, N4-(6,7-difluoro-1H-indazol-3-yl)-N4-methyl-N2-[3,4,5-tris(methyloxy)phenyl]-2,4-pyrimidinediamine] | greater than or equal to 6.0
31 | Cc1ccc(Nc2nccc(N(C)c3n[nH]c4c(F)cccc34)n2)cc1S(C)(=O)=O [Example 111, N4-(7-fluoro-1H-indazol-3-yl)-N4-methyl-N2-[4-methyl-3-(methylsulfonyl)phenyl]-2,4-pyrimidinediamine] | greater than or equal to 6.0
32 | Cc1cc(Nc2nccc(N(C)c3n[nH]c4c(F)cccc34)n2)cc(S(C)(=O)=O)c1 [Example 112, N4-(7-fluoro-1H-indazol-3-yl)-N4-methyl-N2-[3-methyl-5-(methylsulfonyl)phenyl]-2,4-pyrimidinediamine] | greater than or equal to 6.0
